Data: paper PMC2824829
No constants are given. Whether binding was seen depends on the method and setting. Binding seen in cells or lysates may run through a third protein. Some entries that bind do so weakly or less than the wild type. Sequences can lack the tags named with a protein.

By UniProt entry, the sequences of proteins in these tests, tags left out. Where a name states a change or a piece, a line headed by the entry shows the natural chain unless it says otherwise. Chains listed by the source or under a name are the forms on record and can include a tag or linker.
UniProt Q99LI8: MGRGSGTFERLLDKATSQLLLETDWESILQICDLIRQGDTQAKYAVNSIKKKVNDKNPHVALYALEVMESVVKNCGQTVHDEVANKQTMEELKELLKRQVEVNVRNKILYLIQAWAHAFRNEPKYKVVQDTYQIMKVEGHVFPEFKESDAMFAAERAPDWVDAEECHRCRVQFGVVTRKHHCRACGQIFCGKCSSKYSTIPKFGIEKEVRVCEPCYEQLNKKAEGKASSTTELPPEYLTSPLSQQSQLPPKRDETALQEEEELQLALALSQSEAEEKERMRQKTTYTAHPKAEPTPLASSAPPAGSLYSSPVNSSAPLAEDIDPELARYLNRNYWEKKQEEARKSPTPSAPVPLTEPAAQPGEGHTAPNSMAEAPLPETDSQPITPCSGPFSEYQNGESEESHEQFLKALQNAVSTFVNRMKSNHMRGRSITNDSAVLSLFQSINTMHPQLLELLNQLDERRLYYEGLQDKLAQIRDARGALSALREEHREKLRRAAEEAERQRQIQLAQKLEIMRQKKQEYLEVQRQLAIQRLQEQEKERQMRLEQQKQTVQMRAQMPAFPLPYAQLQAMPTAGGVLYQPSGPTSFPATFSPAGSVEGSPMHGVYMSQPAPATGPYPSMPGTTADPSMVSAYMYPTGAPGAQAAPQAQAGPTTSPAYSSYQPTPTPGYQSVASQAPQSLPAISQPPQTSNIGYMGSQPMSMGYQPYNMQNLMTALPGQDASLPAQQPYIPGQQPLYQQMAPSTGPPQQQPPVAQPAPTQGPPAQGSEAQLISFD
Myc-tagged mouse HRS missing the coiled-coil domain (Myc-HRS-ΔCC) (Q99LI8, form named): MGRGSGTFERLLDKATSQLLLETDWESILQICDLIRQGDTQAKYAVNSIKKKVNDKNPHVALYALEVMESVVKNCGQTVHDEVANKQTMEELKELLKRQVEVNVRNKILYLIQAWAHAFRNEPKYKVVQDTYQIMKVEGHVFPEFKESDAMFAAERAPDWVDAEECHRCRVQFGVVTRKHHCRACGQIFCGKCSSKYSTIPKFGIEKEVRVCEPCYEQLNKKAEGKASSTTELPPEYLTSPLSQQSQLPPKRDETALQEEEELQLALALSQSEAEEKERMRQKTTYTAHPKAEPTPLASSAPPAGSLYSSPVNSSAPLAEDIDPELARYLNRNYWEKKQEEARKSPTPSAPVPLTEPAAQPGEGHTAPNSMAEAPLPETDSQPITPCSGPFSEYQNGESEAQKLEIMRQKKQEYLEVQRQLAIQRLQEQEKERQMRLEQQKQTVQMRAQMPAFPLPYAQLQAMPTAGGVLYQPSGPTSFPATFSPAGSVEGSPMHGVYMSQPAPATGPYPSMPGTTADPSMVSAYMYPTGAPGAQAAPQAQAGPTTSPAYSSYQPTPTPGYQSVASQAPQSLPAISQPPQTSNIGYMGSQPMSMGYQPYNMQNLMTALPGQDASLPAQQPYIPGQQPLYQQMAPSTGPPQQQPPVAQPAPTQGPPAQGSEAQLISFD

Tests used:
[1] = biological target: T1, GFP-tagged PDZ domain of mouse alpha-1 syntrophin (GFP-PDZ) (mouse) (UniProt Q61234); test: co-IP; GFP-tagged proteins co-expressed with DYS-HA in HEK293 cells; DYS-HA detected in the immunoprecipitates of the GFP-tagged proteins from cell lysates
T1 sequence: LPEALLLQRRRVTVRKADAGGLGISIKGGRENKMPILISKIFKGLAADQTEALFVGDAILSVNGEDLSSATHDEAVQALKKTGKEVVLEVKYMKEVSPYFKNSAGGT

[2] = biological target: T2, GFP-tagged GASP1/GPRASP1 (GFP-GASP1) (human) (UniProt Q5JY77); test: as above
T2 sequence: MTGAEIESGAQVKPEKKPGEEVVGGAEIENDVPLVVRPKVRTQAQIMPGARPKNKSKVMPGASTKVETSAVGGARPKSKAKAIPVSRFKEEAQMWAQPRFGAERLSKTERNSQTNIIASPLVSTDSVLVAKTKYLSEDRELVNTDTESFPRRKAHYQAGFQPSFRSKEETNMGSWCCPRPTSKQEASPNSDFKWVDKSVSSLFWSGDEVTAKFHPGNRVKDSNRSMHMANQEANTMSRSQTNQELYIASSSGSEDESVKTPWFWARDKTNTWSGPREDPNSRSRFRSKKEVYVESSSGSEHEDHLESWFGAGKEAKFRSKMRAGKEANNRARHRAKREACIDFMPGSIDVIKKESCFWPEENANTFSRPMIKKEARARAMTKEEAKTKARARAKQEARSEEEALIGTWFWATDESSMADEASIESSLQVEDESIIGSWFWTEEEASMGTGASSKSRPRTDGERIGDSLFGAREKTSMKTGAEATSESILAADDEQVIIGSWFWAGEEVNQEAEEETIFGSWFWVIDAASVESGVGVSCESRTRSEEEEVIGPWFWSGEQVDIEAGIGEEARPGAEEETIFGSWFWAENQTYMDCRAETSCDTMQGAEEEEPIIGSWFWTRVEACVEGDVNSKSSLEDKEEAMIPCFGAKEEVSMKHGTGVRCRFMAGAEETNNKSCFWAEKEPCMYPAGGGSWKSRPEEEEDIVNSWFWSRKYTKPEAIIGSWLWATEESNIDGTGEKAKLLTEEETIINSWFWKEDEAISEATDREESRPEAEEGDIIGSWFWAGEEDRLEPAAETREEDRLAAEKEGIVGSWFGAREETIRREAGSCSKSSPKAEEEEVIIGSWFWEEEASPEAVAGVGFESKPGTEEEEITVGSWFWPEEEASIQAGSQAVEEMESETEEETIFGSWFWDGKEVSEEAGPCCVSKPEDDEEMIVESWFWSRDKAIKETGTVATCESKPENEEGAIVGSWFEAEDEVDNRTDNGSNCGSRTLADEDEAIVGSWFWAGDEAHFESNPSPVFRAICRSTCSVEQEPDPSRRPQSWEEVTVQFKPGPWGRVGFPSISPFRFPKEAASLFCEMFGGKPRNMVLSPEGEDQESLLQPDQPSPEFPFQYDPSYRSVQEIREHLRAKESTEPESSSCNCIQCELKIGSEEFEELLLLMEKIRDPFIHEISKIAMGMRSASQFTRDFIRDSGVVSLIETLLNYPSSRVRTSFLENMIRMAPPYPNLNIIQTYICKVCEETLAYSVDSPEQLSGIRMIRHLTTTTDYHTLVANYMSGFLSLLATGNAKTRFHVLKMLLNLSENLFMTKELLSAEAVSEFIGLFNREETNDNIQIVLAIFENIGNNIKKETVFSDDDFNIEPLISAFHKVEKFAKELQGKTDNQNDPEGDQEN

[3] = biological target: Myc-tagged mouse HRS (Myc-HRS) (mouse) (UniProt Q99LI8); test: co-IP; Myc-HRS, Myc-HRS-ΔCC or GFP co-expressed with DYS-HA in HEK293 cells; DYS-HA detected in the immunoprecipitates from cell lysates
[4] = biological target: Myc-tagged mouse HRS missing the coiled-coil domain (Myc-HRS-ΔCC) (mouse) (UniProt Q99LI8); test: as above

binding [1]: no binding
binding [2]: binds
binding [3]: binds
binding [4]: no binding
B1: HA-tagged dysbindin (DYS-HA) (protein, UniProt Q91WZ8 1-352)
chain: MLETLRERLLSVQQDFTSGLKTLSDKSREAKVKGKPRTAPRLPKYSAGLELLSRYEDAWAALHRRAKECADAGELVDSEVVMLSAHWEKKRTSLNELQGQLQQLPALLQDLESLMASLAHLETSFEEVENHLLHLEDLCGQCELERHKQAQAQHLESYKKSKRKELEAFKAELDTEHTQKALEMEHTQQLKLKERQKFFEEAFQQDMEQYLSTGYLQIAERREPMGSMSSMEVNVDVLEQMDLMDISDQEALDVFLNSGGEDNIVMSPGVEMESNPNQNEMSLQIPSPSESASQPPASPSACTDLDTADAPLIQSDEEEVQVDTALVTLHTDRKSTPGVSDDSDQCDSTQDI
